Test results as given in publication doi:10.1101/2025.08.07.669170.

By UniProt entry, the sequences of proteins in these tests, tags left out.
UniProt Q9UN81: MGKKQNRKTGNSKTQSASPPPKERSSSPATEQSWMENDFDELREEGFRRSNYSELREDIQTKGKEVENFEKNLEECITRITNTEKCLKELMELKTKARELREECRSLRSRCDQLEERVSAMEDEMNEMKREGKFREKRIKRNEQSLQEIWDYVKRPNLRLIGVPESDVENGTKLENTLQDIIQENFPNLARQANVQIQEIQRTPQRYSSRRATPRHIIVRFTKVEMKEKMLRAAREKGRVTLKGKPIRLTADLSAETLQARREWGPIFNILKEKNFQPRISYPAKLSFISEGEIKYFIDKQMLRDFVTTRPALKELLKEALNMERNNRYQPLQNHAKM
UniProt Q9UHA4: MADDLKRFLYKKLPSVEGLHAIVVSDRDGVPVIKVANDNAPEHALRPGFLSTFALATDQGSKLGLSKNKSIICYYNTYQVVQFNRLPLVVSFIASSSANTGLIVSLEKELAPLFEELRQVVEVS
UniProt Q99496: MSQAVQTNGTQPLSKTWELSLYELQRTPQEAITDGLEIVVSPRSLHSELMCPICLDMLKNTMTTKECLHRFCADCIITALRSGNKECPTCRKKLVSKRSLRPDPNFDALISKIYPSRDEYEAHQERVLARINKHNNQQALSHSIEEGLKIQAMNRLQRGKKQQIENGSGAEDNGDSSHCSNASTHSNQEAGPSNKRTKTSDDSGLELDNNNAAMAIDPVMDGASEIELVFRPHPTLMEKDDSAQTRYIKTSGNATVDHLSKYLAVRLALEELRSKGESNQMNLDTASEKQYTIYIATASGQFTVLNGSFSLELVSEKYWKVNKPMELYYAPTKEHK

These molecules were tested against LINE-1 ORF1p (human (endogenous in N2102Ep)) (UniProt Q9UN81) (assay: affinity purification with mass spectrometry).

| Molecule | binding |
| --- | --- |
| LAMOR 3 (from UniProt Q9UHA4 1-124) | binds |
| RNF2 (from UniProt Q99496 1-336) | binds |
| AKAP17A (protein, UniProt Q02040 1-695) MAAATIVHDTSEAVELCPAYGLYLKPITKMTISVALPQLKQPGKSISNWEVMERLKGMVQNHQFSTLRISKSTMDFIRFEGEVENKSLVKSFLACLDGKTIKLSGFSDILKVRAAEFKIDFPTRHDWDSFFRDAKDMNETLPGERPDTIHLEGLPCKWFALKESGSEKPSEDVLVKVFEKFGEIRNVDIPMLDPYREEMTGRNFHTFSFGGHLNFEAYVQYREYMGFIQAMSALRGMKLMYKGEDGKAVACNIKVSFDSTKHLSDASIKKRQLERQKLQELEQQREEQKRREKEAEERQRAEERKQKELEELERERKREEKLRKREQKQRDRELRRNQKKLEKLQAEEQKQLQEKIKLEERKLLLAQRNLQSIRLIAELLSRAKAVKLREQEQKEEKLRLQQQEERRRLQEAELRRVEEEKERALGLQRKERELRERLLSILLSKKPDDSHTHDELGVAHADLLQPVLDILQTVSSGCVSATTLHPLGGQPPAGAPKESPAHPEADGAPKSVNGSVAEEAPCKEVQSSCRVVPEDGSPEKRCPGGVLSCIPDNNQQPKGIPACEQNVSRKDTRSEQDKCNREPSKGRGRATGDGLADRHKRERSRARRASSREDGRPRKERRPHKKHAYKDDSPRRRSTSPDHTRSRRSHSKDRHRRERSRERRGSASRKHSRHRRRSERSRSRSPSRHRSTWNR | binds |

These are yes or no findings as the source states them, for the method shown. In cells and extracts the contact can be indirect. A yes stands for co-enrichment or nearness to the bait. Other partners may have been found.
